In publication PMC4991497:
Results are given in words; binding and its absence hold for the method and conditions named. Binding seen in cells or lysates may run through a third protein. Some binding calls cover weakened binding; strength is not graded here. Tags and fused reporters may be left off the sequences shown.

T1: Flag-DNM2 (UniProt P50570)
T1 sequence: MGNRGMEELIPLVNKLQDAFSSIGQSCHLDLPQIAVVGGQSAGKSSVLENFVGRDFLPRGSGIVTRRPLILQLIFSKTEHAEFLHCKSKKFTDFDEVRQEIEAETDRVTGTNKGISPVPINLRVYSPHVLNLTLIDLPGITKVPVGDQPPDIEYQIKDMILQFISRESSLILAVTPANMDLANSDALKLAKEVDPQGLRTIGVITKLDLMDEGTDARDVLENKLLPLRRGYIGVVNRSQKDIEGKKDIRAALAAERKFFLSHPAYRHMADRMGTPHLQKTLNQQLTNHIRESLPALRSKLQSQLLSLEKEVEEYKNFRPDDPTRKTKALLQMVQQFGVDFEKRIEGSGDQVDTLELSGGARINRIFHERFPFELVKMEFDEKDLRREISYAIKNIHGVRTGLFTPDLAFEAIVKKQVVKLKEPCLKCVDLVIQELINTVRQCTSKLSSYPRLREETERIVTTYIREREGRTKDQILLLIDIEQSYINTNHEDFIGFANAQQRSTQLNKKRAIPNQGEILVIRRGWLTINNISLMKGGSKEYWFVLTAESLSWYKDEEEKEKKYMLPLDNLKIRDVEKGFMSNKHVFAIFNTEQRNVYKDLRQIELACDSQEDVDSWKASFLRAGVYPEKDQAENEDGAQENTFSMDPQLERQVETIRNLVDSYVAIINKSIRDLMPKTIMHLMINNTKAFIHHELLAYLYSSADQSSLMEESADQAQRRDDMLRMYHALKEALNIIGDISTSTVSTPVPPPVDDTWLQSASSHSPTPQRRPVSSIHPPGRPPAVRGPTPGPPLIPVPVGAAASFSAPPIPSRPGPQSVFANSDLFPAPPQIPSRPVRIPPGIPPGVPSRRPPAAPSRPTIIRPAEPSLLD


Target: T1, Flag-DNM2
Test: co-IP; 293T cells co-transfected with Flag-DNM2 and Bif-1 or its deletion mutants; 1% Triton X-100 lysis buffer (30 mM Tris-HCl pH 7.5, 150 mM NaCl, 10% glycerol); immunoprecipitation with anti-Flag antibody; immunoblot

binding | Binder
binds | Bif-1 (protein, UniProt Q9Y371 1-365) MNIMDFNVKKLAADAGTFLSRAVQFTEEKLGQAEKTELDAHLENLLSKAECTKIWTEKIMKQTEVLLQPNPNARIEEFVYEKLDRKAPSRINNPELLGQYMIDAGTEFGPGTAYGNALIKCGETQKRIGTADRELIQTSALNFLTPLRNFIEGDYKTIAKERKLLQNKRLDLDAAKTRLKKAKAAETRNSSEQELRITQSEFDRQAEITRLLLEGISSTHAHHLRCLNDFVEAQMTYYAQCYQYMLDLQKQLGSFPSNYLSNNNQTSVTPVPSVLPNAIGSSAMASTSGLVITSPSNLSDLKECSGSRKARVLYDYDAANSTELSLLADEVITVFSVVGMDSDWLMGERGNQKGKVPITYLELLN
binds | Bif-1-SH3-Myc (domain or fragment, UniProt Q9Y371 305-365) SGSRKARVLYDYDAANSTELSLLADEVITVFSVVGMDSDWLMGERGNQKGKVPITYLELLN
